Article doi:10.1101/298737
These are yes or no findings as the source states them, for the method shown. In cells and extracts the contact can be indirect. Some results given as binding are weak or reduced against the parent protein; the word gives no strength.

Amino acid sequences for entries named in this document (tags omitted).
UniProt Q15910: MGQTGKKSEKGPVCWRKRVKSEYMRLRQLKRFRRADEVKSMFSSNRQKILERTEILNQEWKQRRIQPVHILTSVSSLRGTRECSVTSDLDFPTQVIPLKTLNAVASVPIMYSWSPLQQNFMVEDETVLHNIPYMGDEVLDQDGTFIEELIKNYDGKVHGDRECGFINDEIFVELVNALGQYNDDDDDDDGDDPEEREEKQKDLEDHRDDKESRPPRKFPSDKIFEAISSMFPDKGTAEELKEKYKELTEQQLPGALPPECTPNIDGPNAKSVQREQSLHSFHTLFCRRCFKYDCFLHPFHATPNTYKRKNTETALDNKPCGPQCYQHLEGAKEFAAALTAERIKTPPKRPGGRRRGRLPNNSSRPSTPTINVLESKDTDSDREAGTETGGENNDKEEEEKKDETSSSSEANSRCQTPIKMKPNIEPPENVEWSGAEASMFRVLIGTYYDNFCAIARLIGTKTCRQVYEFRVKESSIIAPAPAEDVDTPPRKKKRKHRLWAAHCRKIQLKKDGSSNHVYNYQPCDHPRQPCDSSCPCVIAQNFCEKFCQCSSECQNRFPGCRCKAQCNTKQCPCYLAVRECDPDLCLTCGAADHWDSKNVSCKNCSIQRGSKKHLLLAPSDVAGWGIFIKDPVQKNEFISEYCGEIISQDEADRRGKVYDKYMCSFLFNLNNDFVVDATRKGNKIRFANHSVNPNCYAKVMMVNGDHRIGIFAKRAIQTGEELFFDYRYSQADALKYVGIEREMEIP
UniProt P11940: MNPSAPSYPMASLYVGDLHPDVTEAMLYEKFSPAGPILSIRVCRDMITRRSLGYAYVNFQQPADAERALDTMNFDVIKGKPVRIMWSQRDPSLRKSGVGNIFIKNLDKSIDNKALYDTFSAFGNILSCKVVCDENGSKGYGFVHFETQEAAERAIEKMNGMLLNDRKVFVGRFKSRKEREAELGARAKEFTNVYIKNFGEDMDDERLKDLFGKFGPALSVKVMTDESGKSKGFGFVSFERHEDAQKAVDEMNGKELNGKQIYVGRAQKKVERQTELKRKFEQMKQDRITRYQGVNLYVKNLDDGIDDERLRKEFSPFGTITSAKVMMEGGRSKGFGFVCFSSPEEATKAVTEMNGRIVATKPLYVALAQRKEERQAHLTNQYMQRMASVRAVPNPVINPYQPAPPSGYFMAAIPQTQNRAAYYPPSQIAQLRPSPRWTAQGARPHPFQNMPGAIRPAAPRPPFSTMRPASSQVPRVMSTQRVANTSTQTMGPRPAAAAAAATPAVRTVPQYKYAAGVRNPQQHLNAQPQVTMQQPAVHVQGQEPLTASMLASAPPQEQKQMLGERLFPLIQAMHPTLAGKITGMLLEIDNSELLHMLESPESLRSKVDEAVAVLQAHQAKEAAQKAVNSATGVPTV

Assays:
[1] = target: endogenous EZH2 (human (endogenous in C4-2)) (UniProt Q15910); assay: co-IP
Myc-tagged EZH2 (human) = Myc-tagged EZH2 (human) (UniProt Q15910); assay: co-IP

binding [1]	binding (Myc-tagged EZH2 (human))	Molecule
binds	binds	poly(A)-binding protein-1 (from UniProt P11940 1-636)
binds	binds	eIF4G2 (protein, UniProt P78344 1-907) MESAIAEGGASRFSASSGGGGSRGAPQHYPKTAGNSEFLGKTPGQNAQKWIPARSTRRDDNSAANNSANEKERHDAIFRKVRGILNKLTPEKFDKLCLELLNVGVESKLILKGVILLIVDKALEEPKYSSLYAQLCLRLAEDAPNFDGPAAEGQPGQKQSTTFRRLLISKLQDEFENRTRNVDVYDKRENPLLPEEEEQRAIAKIKMLGNIKFIGELGKLDLIHESILHKCIKTLLEKKKRVQLKDMGEDLECLCQIMRTVGPRLDHERAKSLMDQYFARMCSLMLSKELPARIRFLLQDTVELREHHWVPRKAFLDNGPKTINQIRQDAVKDLGVFIPAPMAQGMRSDFFLEGPFMPPRMKMDRDPLGGLADMFGQMPGSGIGTGPGVIQDRFSPTMGRHRSNQLFNGHGGHIMPPTQSQFGEMGGKFMKSQGLSQLYHNQSQGLLSQLQGQSKDMPPRFSKKGQLNADEISLRPAQSFLMNKNQVPKLQPQITMIPPSAQPPRTQTPPLGQTPQLGLKTNPPLIQEKPAKTSKKPPPSKEELLKLTETVVTEYLNSGNANEAVNGVREMRAPKHFLPEMLSKVIILSLDRSDEDKEKASSLISLLKQEGIATSDNFMQAFLNVLDQCPKLEVDIPLVKSYLAQFAARAIISELVSISELAQPLESGTHFPLFLLCLQQLAKLQDREWLTELFQQSKVNMQKMLPEIDQNKDRMLEILEGKGLSFLFPLLKLEKELLKQIKLDPSPQTIYKWIKDNISPKLHVDKGFVNILMTSFLQYISSEVNPPSDETDSSSAPSKEQLEQEKQLLLSFKPVMQKFLHDHVDLQVSALYALQVHCYNSNFPKGMLLRFFVHFYDMEIIEEEAFLAWKEDITQEFPGKGKALFQVNQWLTWLETAEEEESEEEAD
